Test in all cases: co-IP; proteins from rat hippocampal tissue incubated overnight at 4 °C in RIA buffer (200 mM NaCl, 10 mM EDTA, 10 mM Na2HPO4, 0.5% NP-40) plus 0.1% SDS with primary antibodies; magnetic beads A; Western blot
A general note: A western blot detects proteins with antibodies after separation by electrophoresis.

Chains of the proteins cited; added tags and fusions are not shown. Residues count along the entry.
UniProt P19490, residues 19-907: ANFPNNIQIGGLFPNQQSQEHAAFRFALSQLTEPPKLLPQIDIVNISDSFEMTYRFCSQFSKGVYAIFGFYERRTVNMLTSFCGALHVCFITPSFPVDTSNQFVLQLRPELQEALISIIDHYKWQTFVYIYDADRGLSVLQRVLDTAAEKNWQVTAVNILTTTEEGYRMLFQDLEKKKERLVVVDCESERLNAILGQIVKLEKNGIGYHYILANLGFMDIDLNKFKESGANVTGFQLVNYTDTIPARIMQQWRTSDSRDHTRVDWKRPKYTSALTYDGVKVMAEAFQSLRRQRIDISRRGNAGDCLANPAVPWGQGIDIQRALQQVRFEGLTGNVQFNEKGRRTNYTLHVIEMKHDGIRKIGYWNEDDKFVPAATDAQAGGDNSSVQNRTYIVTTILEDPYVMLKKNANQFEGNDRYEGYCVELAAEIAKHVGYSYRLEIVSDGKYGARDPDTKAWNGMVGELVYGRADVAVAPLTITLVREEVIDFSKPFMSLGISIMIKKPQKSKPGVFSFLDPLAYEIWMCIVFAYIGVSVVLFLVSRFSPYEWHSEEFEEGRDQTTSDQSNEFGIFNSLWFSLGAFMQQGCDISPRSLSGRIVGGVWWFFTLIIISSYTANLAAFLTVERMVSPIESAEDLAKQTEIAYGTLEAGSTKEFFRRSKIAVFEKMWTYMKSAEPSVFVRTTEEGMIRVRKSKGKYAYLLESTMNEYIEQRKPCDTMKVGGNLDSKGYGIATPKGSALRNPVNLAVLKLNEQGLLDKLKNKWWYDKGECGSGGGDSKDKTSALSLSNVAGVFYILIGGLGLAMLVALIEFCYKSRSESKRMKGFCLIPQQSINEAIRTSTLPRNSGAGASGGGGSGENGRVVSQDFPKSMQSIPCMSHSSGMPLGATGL
UniProt P47709: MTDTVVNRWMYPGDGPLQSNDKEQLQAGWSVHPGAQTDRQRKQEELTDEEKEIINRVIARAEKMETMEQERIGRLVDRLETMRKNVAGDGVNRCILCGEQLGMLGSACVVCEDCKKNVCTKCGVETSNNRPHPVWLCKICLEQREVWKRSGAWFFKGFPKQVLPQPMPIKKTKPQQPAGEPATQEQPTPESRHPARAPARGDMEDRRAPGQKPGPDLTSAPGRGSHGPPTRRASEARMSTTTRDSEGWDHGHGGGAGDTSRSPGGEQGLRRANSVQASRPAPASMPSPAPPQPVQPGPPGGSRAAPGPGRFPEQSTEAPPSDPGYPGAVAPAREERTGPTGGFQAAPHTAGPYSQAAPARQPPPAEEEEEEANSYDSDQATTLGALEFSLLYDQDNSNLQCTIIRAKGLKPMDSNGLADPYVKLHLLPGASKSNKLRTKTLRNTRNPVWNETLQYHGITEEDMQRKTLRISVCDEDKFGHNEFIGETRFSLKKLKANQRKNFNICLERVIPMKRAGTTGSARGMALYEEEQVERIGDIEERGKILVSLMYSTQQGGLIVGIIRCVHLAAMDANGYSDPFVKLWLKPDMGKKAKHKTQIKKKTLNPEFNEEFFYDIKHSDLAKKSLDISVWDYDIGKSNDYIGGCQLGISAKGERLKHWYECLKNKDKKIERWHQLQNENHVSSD
UniProt Q9QYF3: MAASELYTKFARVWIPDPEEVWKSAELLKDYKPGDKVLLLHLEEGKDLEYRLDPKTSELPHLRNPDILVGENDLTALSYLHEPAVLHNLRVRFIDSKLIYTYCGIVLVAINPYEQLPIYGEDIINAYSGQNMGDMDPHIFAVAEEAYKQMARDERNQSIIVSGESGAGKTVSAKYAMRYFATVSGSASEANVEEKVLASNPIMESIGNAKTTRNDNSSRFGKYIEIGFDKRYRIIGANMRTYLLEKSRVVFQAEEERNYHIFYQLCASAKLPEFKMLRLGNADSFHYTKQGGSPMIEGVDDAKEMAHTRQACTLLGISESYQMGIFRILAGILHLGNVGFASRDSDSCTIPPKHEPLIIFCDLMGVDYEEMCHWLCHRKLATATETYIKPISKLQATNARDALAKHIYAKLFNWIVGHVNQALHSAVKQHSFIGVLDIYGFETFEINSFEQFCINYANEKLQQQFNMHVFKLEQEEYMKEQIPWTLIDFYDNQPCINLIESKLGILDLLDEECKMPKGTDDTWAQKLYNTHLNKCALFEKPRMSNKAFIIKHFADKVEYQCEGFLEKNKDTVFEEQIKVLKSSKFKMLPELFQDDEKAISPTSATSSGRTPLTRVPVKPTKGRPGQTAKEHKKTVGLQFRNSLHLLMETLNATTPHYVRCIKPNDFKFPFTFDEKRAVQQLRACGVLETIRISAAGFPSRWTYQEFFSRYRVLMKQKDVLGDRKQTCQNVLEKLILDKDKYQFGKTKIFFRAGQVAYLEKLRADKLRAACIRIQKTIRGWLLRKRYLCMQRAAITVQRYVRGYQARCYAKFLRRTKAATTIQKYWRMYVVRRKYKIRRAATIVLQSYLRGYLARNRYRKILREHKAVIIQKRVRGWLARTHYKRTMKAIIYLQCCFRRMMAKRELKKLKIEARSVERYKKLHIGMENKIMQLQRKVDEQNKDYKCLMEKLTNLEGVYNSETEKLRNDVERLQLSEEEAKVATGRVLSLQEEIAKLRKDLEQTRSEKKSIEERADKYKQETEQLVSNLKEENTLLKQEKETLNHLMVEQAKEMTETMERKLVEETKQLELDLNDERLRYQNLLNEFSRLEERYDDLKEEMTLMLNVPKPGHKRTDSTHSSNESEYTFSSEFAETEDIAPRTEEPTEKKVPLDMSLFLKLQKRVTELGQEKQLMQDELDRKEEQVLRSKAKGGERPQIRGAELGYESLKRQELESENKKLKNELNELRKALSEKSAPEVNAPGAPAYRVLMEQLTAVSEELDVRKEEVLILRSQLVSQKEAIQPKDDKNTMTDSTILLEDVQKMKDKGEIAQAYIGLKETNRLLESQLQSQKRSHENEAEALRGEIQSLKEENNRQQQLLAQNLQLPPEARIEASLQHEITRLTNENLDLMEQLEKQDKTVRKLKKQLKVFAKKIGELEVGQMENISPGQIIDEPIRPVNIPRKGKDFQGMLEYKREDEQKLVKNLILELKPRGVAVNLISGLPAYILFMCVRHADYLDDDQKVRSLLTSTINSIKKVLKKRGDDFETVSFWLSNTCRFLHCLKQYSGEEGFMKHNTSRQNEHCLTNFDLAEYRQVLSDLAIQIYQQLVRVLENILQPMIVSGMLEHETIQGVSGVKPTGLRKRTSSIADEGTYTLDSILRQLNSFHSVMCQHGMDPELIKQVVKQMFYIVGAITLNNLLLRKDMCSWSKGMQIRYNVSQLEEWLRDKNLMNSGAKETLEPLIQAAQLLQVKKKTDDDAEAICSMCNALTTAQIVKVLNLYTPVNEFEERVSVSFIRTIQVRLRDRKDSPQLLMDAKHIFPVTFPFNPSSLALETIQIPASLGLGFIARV

Assay [1] addresses GluA1 subunit of AMPA receptors (rat (endogenous in hippocampal tissue)) (UniProt P19490).
In assay [2] the target is Rabphilin-3A (rat (endogenous in hippocampal tissue)) (UniProt P47709).
The target of assay [3] is myosin Va (rat (endogenous in hippocampal tissue)) (UniProt Q9QYF3).

Results are given in words; binding and its absence hold for the method and conditions named. In cells and extracts the contact can be indirect. Some entries that bind do so weakly or less than the wild type.

Consider myosin Va (from UniProt Q9QYF3 1-1828), for which the binding entry in assay [1] and in assay [2] was “binds” in each case.
With “GluA1 subunit of AMPA receptors (from UniProt P19490 19-907)”, the binding entry in assay [3] and in assay [2] was “binds” each time.
As for “Rabphilin-3A (from UniProt P47709 1-684)”, the binding entry in assay [1] and in assay [3] was “binds” in each case.

(Values after publication PMC9139176.)
